Measurements taken from PMC10318143 (Frontiers in Chemistry, 2023).

Assay: general procedure: Fmoc solid-phase peptide synthesis; ChemMatrix Rink Amide resin (0.44 mmol/g loading); HCTU and DIPEA
Settings: conjugation step, 220 nm

Substance | final HPLC purity [%]
PEPTIDE1{[CoA-Ac].E.E.E.L.[am]}$$$$V2.0 | 94.1
PEPTIDE1{[CoA-Ac].E.D.E.L.[am]}$$$$V2.0 | 94.7
PEPTIDE1{[CoA-Ac].E.E.D.I.[am]}$$$$V2.0 | 95.1
PEPTIDE1{[CoA-Ac].D.E.E.I.[am]}$$$$V2.0 | 95.5
PEPTIDE1{[CoA-Ac].E.D.D.I.[am]}$$$$V2.0 | 93.5
PEPTIDE1{[CoA-Ac].E.S.E.L.[am]}$$$$V2.0 | 96.8
PEPTIDE1{[CoA-Ac].D.D.E.I.[am]}$$$$V2.0 | 98.4
PEPTIDE1{[CoA-Ac].E.E.D.L.[am]}$$$$V2.0 | 97.0
PEPTIDE1{[CoA-Ac].P.D.E.L.[am]}$$$$V2.0 | 97.3
PEPTIDE1{[CoA-Ac].E.D.Q.L.[am]}$$$$V2.0 | 100
PEPTIDE1{[CoA-Ac].D.E.E.L.[am]}$$$$V2.0 | 97.9
PEPTIDE1{[CoA-Ac].E.D.E.I.[am]}$$$$V2.0 | 95.2

Strings that start with PEPTIDE1 are HELM notation: dots part the residues, brackets hold end groups and non-standard residues.
